For at least one compound, name, drawing or mass did not settle the structure.
Experiments:
IL1B = assay: qRT-PCR of IL1B in HEK T/tH KRAS^G12V cells; assay type: cell-based, human; conditions: 16 hours
Description: Total RNA was isolated using RNAzol RT (Sigma), cDNA was generated using High Capacity cDNA reverse transcription kit (Thermo Fisher Scientific, 4368814) and qPCR was performed using SYBR-Green reagent (Applied Biosystems, cat #4309155). All experiments were performed in biological duplicates or triplicates (n=2,3).

NF-κB reporter activity = assay: NF-κB luciferase reporter assay; assay type: cell-based, human; conditions: KRAS-mutant PDAC cells (PANC-1); serial dilutions from 20 μM; 18 hours
Description: Cells stably expressing plasmid encoding serum-response-element (SRE) or NFKB promoter driven Firefly luciferase and constitutive Renilla luciferase were seeded at equal density per well and treatment was initiated the next day for 16-24 duration. Alternatively, 293T reporter cells were transfected in duplicate or triplicate with 1 μg of appropriate plasmid DNA. Medium was replaced 16-18 hours later and at 48 hours post-transfection reporter activity was measured using Dual-Glo® Luciferase Assay System. Data was acquired using SpectraMax i3Microplate Reader and analysis was performed by calculating ratio of firefly:renilla. Values were normalized to control and graphed using GraphPad Prism v7/8 software.

Q: For `CC(=O)Nc1cccc(-n2c(=O)n(C3CC3)c(=O)c3c(Nc4ccc(I)cc4F)n(C)c(=O)c(C)c32)c1` [trametinib], which “IL-1B production (IL1B expression by qRT-PCR)” value (IL1B) is on record?
A: significantly abrogated

Q: What about the NF-κB reporter activity (NF-κB reporter activity) of the same molecule?
A: unexpectedly enhanced
